According to article PMC7212649, “An arrestin-1 surface opposite of its interface with photoactivated rhodopsin engages with enolase-1” (The Journal of Biological Chemistry, 2020):
No constants are given. Whether binding was seen depends on the method and setting. For some assays here: Binding seen in cells or lysates may run through a third protein. Some results given as binding are weak or reduced against the parent protein; the word gives no strength.

The chains behind the UniProt entries cited, without tags or fusion partners.
UniProt P02699: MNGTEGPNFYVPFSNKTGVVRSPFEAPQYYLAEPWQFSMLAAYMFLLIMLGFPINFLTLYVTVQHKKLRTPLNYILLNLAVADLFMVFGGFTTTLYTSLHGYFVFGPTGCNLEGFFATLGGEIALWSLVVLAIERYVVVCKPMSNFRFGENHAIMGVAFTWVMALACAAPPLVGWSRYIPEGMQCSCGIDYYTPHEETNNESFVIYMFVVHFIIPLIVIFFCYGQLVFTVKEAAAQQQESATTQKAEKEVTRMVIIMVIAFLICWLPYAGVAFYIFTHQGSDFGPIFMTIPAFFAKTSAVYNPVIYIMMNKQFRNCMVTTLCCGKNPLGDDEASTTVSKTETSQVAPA
UniProt Q9XSJ4: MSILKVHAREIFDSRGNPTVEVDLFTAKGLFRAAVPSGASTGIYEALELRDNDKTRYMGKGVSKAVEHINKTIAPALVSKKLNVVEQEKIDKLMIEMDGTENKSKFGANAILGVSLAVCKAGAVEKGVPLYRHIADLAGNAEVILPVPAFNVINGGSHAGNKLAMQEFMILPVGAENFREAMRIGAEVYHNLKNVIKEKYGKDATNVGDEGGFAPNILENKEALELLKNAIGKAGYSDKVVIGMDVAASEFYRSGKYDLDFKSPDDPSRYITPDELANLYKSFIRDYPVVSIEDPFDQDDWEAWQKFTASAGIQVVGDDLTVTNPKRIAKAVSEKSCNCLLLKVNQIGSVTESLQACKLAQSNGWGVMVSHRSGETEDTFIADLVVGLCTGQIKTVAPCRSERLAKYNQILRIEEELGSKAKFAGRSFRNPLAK

Columns and labels:
[1] = molecular target: phosphorylated rhodopsin kept in the dark, in rod disc membranes (UniProt P02699); experiment: co-sedimentation; 2 μM arrestin-1 with or without 2 μM enolase-1/GFP mixed with 5 μM pRho in rod disc membranes, dark or light for 1 min; 18,000 x g 15 min; pellet on 12% SDS-PAGE, Coomassie; only the binder purified
[2] = molecular target: arrestin-1 "3A" (F375A/V376A/F377A) (bovine) (UniProt P08168); experiment: co-IP; 5 μM arrestin-1 (or mutant) with 5 μM enolase-1–Alexa 546 in LAP200N, 2 h at 4 °C; captured by C10C10 anti-arrestin-1 mAb on Protein G magnetic beads for 16 h, 10 washes, eluted at pH 2.5; fluorescence of captured enolase-1 read; both purified

Row | Substance | binding [1] | binding [2]
1 | enolase-1/GFP fusion (from UniProt Q9XSJ4 1-434) (enzyme) | no binding (tested: 2 μM enolase-1/GFP, 5 μM pRho) | –
2 | enolase-1 labeled with Alexa Fluor 546 (from UniProt Q9XSJ4 1-434) (enzyme) | – | binds
